The list shows a part of the results.
What follows are targets tested with CC[C@H](C)[C@@H](C(=O)N[C@@H]([C@@H](C)O)C(=O)N[C@@H](CC(C)C)C(=O)[C@]1(CO1)C)NC(=O)[C@H]([C@@H](C)CC)N(C)C(=O)C [epoxomicin] (assay: log2 fold change, soluble protein after heating vs DMSO (PISA); higher = thermal stabilisation; K562 cells, 10 uM, 30 min; active = over 0.2 and 3.5 SD of the protein, either way, in both replicates (recomputed)).
Procedure, shortened: (§1)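 Values are thermal stability changes relative to control samples and are taken from duplicates. They are stated as log2 fold changes. Before quantification by TMTpro 16plex LC-MS/MS with equalised channel sums, K562 cells at 2×10^6 cells/mL were treated with 10 μM compound for 30 min, heated in aliquots for 3 min across 48°C-58°C, pooled, extracted in PBS with 0.5% NP-40 at 4°C, and centrifuged at 21,000xg for 90 min to give the soluble supernatant.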

Amino acid sequences for entries named in this document (tags omitted). A change or cut given only in a name is not applied to a line headed by its entry.
UniProt Q86XT9, whole entry, looked up: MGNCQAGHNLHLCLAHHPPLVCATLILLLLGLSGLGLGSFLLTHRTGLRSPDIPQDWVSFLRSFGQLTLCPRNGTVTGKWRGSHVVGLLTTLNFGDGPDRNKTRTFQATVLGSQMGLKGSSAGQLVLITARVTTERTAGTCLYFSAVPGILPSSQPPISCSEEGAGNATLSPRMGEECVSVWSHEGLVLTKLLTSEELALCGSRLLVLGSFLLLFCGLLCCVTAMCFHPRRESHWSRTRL
UniProt P19438, whole entry, looked up: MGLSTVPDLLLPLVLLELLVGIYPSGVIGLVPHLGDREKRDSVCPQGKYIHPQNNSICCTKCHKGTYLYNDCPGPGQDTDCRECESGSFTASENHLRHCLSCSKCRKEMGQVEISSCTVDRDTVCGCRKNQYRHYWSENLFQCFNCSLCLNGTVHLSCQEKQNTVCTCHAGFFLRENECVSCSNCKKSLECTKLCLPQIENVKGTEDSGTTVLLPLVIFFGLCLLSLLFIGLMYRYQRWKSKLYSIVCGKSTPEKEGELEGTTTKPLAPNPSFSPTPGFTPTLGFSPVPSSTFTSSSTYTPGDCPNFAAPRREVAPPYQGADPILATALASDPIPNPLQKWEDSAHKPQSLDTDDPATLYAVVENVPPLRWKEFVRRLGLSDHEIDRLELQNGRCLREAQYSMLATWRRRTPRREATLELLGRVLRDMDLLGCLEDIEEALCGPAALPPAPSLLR
UniProt Q96Q45: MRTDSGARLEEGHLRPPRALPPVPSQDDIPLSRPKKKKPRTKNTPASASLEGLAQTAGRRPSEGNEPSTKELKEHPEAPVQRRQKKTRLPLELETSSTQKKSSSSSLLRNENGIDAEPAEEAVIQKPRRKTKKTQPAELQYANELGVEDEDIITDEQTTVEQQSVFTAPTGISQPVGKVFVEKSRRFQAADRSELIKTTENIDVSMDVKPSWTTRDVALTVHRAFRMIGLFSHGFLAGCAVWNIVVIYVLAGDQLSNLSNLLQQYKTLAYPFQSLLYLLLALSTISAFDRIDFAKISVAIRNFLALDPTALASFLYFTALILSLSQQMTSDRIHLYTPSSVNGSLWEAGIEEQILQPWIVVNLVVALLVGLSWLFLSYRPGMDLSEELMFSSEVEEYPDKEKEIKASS
UniProt Q9BZW5, whole entry, looked up: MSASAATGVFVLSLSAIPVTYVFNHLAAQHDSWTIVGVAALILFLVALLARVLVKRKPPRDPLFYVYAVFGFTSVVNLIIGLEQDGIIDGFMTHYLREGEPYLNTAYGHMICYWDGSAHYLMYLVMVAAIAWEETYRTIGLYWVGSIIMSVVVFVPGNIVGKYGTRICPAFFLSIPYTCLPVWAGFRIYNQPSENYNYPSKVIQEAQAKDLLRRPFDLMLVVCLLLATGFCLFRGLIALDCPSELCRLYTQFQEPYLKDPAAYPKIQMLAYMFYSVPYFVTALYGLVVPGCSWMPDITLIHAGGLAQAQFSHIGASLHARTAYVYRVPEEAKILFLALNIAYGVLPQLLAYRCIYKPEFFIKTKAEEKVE
UniProt Q9H6X4: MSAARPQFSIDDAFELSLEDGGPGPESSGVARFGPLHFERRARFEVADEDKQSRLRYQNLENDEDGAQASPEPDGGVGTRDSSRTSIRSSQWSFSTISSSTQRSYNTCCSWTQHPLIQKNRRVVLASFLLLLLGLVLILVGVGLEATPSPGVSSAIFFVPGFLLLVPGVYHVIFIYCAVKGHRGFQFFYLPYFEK
UniProt Q9BVK8: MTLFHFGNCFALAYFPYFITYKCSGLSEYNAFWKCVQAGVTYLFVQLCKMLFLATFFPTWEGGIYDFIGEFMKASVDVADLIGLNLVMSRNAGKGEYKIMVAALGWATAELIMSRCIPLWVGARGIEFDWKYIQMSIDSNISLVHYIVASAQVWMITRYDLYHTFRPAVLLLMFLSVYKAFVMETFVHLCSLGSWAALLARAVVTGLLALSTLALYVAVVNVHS
UniProt O94876, whole entry, looked up: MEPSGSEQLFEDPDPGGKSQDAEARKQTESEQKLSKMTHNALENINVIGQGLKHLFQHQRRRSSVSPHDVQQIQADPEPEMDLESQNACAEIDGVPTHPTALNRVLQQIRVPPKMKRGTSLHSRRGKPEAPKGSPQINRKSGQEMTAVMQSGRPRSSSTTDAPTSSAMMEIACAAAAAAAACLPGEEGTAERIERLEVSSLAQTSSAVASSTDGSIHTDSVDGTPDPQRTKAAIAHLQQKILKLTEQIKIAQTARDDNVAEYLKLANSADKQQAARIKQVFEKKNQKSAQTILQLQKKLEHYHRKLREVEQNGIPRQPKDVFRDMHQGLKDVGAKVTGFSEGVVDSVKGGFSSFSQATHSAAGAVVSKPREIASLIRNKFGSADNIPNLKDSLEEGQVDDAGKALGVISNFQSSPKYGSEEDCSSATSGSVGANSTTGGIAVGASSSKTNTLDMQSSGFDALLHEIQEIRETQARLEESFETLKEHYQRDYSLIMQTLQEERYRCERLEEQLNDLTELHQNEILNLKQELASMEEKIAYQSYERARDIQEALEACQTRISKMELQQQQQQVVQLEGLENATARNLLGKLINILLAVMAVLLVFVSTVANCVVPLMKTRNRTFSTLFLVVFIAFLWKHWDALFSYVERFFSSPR
UniProt O95807: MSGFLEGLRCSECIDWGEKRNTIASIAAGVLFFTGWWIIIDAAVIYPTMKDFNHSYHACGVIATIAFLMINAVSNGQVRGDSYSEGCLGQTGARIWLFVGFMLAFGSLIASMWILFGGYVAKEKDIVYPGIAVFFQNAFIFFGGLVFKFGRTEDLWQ
UniProt Q96B96: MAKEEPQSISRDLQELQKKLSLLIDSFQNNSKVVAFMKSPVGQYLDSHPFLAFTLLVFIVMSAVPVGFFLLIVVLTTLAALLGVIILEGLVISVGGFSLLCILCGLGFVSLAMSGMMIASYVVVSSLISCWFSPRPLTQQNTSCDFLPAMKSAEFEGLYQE
UniProt Q9BXS4: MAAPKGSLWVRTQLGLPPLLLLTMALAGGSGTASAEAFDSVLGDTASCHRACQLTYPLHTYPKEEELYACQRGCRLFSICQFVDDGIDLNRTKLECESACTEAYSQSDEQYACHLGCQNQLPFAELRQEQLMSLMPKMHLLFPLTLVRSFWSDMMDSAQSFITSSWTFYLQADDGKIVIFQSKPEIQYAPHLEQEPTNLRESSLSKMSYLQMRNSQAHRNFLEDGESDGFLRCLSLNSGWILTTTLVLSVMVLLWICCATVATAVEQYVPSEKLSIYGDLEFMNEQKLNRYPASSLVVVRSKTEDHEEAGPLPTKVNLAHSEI
UniProt Q9BVX2: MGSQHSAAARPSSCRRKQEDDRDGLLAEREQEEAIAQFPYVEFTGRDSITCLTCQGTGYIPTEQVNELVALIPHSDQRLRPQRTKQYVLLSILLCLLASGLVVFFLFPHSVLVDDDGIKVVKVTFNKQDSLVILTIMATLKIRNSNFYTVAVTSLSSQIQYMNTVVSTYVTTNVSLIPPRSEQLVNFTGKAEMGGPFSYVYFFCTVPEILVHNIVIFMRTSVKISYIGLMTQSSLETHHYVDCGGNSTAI
UniProt Q8N2U0: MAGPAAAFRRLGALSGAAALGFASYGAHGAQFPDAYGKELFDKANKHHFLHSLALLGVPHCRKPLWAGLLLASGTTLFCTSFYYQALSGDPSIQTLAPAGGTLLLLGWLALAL
UniProt Q9BRR3: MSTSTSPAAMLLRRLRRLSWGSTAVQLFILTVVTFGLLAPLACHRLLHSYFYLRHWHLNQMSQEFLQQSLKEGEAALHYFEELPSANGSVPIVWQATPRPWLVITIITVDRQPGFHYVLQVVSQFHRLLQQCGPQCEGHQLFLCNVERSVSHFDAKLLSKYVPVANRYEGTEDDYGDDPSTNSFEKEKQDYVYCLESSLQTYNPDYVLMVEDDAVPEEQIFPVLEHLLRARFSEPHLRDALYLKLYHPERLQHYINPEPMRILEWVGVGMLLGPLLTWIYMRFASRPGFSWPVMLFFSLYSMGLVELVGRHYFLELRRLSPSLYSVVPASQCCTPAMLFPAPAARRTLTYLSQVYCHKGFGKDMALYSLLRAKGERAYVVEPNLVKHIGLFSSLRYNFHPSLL
UniProt Q96AN5: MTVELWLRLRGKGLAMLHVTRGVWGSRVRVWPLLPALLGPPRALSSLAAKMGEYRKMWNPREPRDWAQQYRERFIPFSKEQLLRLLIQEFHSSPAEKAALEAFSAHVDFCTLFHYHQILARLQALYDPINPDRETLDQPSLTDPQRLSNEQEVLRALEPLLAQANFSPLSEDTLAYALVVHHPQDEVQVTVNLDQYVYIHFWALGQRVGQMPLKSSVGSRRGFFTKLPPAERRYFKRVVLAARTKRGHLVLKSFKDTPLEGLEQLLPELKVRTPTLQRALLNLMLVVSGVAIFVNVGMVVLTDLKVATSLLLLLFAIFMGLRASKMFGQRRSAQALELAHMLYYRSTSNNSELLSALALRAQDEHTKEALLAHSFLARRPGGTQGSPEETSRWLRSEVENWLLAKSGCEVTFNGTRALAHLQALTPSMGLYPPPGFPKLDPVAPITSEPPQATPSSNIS
UniProt O75204: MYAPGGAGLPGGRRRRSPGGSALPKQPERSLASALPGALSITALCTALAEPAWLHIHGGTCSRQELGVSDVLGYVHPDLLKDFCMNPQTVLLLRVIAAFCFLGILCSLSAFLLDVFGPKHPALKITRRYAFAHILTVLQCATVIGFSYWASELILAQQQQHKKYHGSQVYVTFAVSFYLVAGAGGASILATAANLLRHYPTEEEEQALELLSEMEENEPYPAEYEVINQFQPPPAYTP
UniProt Q92545: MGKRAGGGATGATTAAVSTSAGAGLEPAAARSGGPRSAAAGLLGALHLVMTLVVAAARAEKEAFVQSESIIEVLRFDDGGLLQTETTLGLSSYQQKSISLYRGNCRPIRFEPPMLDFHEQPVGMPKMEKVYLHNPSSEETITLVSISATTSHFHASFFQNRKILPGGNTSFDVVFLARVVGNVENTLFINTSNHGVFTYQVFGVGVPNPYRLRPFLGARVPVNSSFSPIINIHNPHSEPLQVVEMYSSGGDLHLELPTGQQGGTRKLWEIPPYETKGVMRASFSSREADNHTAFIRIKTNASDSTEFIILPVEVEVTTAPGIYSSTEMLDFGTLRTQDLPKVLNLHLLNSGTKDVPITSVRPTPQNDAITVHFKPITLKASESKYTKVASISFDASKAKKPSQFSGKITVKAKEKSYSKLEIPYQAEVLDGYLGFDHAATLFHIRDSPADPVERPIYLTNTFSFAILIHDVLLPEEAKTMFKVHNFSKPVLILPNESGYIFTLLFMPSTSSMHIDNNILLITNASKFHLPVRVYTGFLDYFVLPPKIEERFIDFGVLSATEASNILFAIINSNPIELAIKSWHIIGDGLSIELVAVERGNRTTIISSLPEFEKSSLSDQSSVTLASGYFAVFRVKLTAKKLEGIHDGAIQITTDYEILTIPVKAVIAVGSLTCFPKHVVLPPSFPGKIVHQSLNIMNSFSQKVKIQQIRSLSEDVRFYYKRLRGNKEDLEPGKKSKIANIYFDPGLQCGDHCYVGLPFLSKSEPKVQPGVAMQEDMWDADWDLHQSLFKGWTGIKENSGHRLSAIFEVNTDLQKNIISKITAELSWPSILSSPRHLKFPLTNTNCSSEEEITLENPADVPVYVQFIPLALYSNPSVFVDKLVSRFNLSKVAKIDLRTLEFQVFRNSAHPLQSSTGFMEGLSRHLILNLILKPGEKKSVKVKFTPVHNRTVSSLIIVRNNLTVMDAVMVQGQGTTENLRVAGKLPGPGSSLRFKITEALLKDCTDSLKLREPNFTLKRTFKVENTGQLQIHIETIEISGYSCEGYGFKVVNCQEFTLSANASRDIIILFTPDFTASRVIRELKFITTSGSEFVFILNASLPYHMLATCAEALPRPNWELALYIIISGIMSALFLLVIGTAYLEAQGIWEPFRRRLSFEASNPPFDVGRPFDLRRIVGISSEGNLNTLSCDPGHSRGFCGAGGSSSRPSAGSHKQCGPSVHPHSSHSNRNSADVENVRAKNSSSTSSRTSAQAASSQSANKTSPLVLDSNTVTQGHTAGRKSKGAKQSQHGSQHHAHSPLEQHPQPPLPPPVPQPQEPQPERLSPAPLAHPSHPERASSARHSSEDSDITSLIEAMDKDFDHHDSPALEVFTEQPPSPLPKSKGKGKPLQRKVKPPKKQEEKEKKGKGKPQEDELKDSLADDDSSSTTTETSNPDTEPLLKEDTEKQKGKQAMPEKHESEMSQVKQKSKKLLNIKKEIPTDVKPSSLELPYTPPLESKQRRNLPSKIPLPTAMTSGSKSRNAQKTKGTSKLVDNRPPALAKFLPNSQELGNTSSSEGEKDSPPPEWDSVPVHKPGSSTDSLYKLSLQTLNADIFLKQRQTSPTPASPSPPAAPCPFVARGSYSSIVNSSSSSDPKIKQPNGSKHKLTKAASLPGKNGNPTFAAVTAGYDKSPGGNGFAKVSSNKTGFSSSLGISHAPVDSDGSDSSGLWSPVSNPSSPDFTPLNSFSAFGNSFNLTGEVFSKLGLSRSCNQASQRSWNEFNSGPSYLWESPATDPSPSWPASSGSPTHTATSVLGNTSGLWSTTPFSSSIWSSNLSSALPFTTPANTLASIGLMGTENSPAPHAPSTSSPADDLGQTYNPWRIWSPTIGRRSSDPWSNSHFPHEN

log2 fold change, inactive:
TMEM219 (UniProt Q86XT9) 0.035, TMEM184C (UniProt Q9NVA4) 0.087, TNFAIP3 (UniProt P21580) -0.081, TNFRSF1A (UniProt P19438) 0.023, TMEM237 isoform 3 (UniProt Q96Q45) -0.105, TMCO3 (UniProt Q6UWJ1) 0, TMEM201 (UniProt Q5SNT2) 0.002, TM6SF1 (UniProt Q9BZW5) 0.052, TMEM134 (UniProt Q9H6X4) -0.062, TMEM147 (UniProt Q9BVK8) -0.118, TMCC1 (UniProt O94876) 0, TMEM50A (UniProt O95807) 0.161, TMEM159 isoform 2 (UniProt Q96B96) -0.088, TLR9 isoform 4 (UniProt Q9NR96) 0.046

Each target was assayed with CCn1c(C(=O)N(C2CC2)C2CC2)cc2c3c(ncn3C)c(Nc3cc(C)n(C)n3)nc21 in the same assay as above.
Procedure, shortened: as §1

log2 fold change, inactive:
TMEM44 (UniProt Q2T9K0) 0.003, TMEM35B (UniProt Q8NCS4) -0.168, TNFAIP3 (UniProt P21580) 0.022, TMEM94 isoform 2 (UniProt Q12767) -0.277, TMEM260 (UniProt Q9NX78) -0.189, TMEM184B (UniProt Q9Y519) 0.015, TNFRSF1A (UniProt P19438) 0.014, TMEM237 isoform 3 (UniProt Q96Q45) 0.019, TMEM201 (UniProt Q5SNT2) -0.073, TM6SF1 (UniProt Q9BZW5) 0.013, TMPO (UniProt G5E972) -0.053, TMEM59 (UniProt Q9BXS4) 0, TMEM106C (UniProt Q9BVX2) 0.17, TMEM256 (UniProt Q8N2U0) -0.026, TMEM246 (UniProt Q9BRR3) 0.126, TMEM134 (UniProt Q9H6X4) -0.042, TMEM147 (UniProt Q9BVK8) -0.039, TMEM143 (UniProt Q96AN5) 0.079, TMEM127 (UniProt O75204) 0.077, TNFAIP2 (UniProt Q03169) -0.186, TMEM120B (UniProt A0PK00) 0.138, TMCO6 isoform 2 (UniProt Q96DC7) -0.309, TMEM159 isoform 2 (UniProt Q96B96) 0.005, TLR9 isoform 4 (UniProt Q9NR96) -0.019, TMEM131 (UniProt Q92545) -0.109

— the supplement of paper PMC10849652
